According to the supplement of paper PMC8732350:
Counter-ions that a name gives are not always drawn. ± gives the standard deviation of the averaged measurements. This is one part of the list. This data set is noisy: repeats of one test often differ as much as different tests do.

What follows are compounds tested on A549 (assay: surface PD-L1 immunofluorescence intensity relative to IFN-gamma-only control (ratio); higher = more PD-L1 expression). Details: 10 µM; exposure time 24 h; IFN-gamma 100 ng/mL.

| SMILES | surface PD-L1 immunofluorescence intensity |
| --- | --- |
| CCCCC[C@H](O)CC(=O)CCc1ccc(O)c(OC)c1 [Gingerol] | 0.992 |
| CCCCC[C@H](O)CC(=O)CCc1ccc(O)c(OC)c1 [6-Gingerol] | 1.1 |
| CN(C)[C@@H](CCOc1cccc2ccccc12)c1ccccc1 [Dapoxetine HCl (Priligy)] | 1.05 |
| CN(C)CCCC1(c2ccc(F)cc2)OCc2cc(C#N)ccc21 (configuration not stated) [Citalopram hydrobromide] | 1.07 |
| CN(C)CCCC1(c2ccc(F)cc2)OCc2cc(C#N)ccc21 (configuration not stated) [Citalopram Hydrobromide] | 0.963 |
| CCCC(CCC)C(=O)O [Sodium Valproate] | 1.04 |
| CCCC(CCC)C(=O)O [Valproic acid] | 1.02 ± 0.086 |
| CCCC(CCC)C(=O)O [Sodium valproate] | 1.08 |
| Cc1onc(-c2ccccc2)c1C(=O)N[C@@H]1C(=O)N2[C@@H]1SC(C)(C)[C@@H]2C(=O)O [Oxacillin sodium] | 0.969 |
| Cc1onc(-c2ccccc2)c1C(=O)N[C@@H]1C(=O)N2[C@@H]1SC(C)(C)[C@@H]2C(=O)O [Oxacillin sodium monohydrate] | 0.928 |
| O=C(O)CNC(=O)C(CS)Cc1ccccc1 (configuration not stated) [Thiorphan] | 0.982 |
| CC(C)c1noc(N2CCC(COc3ccc(-c4ccc(S(C)(=O)=O)cc4)nc3)CC2)n1 | 1.06 |
| CCOC(=O)C1=CN(Cc2ccccc2)C=C(C(=O)OCC)C1c1ccccc1 | 0.943 |
| CC[C@H](Nc1ncnc2[nH]cnc12)c1nc2cccc(F)c2c(=O)n1-c1ccccc1 | 1.02 |
| CCC(=O)NCC[C@@H]1CCc2ccc3c(c21)CCO3 [Ramelteon (TAK-375)] | 1.09 |
| C[C@H](NC(=O)/C(C#N)=C/c1ccc(O)c(O)c1)c1ccccc1 [Tyrphostin B44, (+) enantiomer] | 0.994 |
| O=S(=O)(NCCNC/C=C/c1ccc(Br)cc1)c1cccc2cnccc12 [H 89 dihydrochloride] | 0.988 |
| O=S(=O)(NCCNC/C=C/c1ccc(Br)cc1)c1cccc2cnccc12 | 0.907 |
| COc1ccc(-c2coc3cc(O)cc(O)c3c2=O)cc1 [Biochanin A (4-Methylgenistein)] | 1.03 |
| COc1ccccc1N1CCN(CCN2C(=O)CC3(CCCC3)CC2=O)CC1 [BMY 7378 dihydrochloride] | 1.09 |
| CCN(CC)CCCCC1CCN(CC(=O)N2c3ccccc3C(=O)Nc3cccnc32)CC1 | 0.998 |
| CN(C)CCC(c1ccc(Cl)cc1)c1ccccn1 (configuration not stated) [Chlorpheniramine maleate] | 0.912 |
| COc1cc(N)c(Cl)cc1C(=O)NC1CCN(CCCOc2ccc(F)cc2)CC1OC (configuration not stated) [Cisapride] | 1.03 ± 0.025 |
| CC[N+](C)(CC)CCC[n+]1c(-c2ccccc2)c2cc(N)ccc2c2ccc(N)cc21 [Propidium iodide] | 1.14 |
| O=C(O)c1ccccc1Nc1cccc(C(F)(F)F)c1 [Flufenamic acid] | 0.976 ± 0.13 |
| O=C(O)Cn1nnc(-c2cc(N3CCC(Oc4cc(F)ccc4Br)CC3)no2)n1 | 1.11 |

A section from the list above, as a working copy:

| SMILES | surface PD-L1 immunofluorescence intensity |
| --- | --- |
| CN(C)CCCC1(c2ccc(F)cc2)OCc2cc(C#N)ccc21 (configuration not stated) [Citalopram Hydrobromide] | 0.963 |
| CCCC(CCC)C(=O)O [Sodium Valproate] | 1.04 |
| CCCC(CCC)C(=O)O [Valproic acid] | 1.02 ± 0.086 |
| CCCC(CCC)C(=O)O [Sodium valproate] | 1.08 |
| Cc1onc(-c2ccccc2)c1C(=O)N[C@@H]1C(=O)N2[C@@H]1SC(C)(C)[C@@H]2C(=O)O [Oxacillin sodium] | 0.969 |
| Cc1onc(-c2ccccc2)c1C(=O)N[C@@H]1C(=O)N2[C@@H]1SC(C)(C)[C@@H]2C(=O)O [Oxacillin sodium monohydrate] | 0.928 |
| O=C(O)CNC(=O)C(CS)Cc1ccccc1 (configuration not stated) [Thiorphan] | 0.982 |
| CC(C)c1noc(N2CCC(COc3ccc(-c4ccc(S(C)(=O)=O)cc4)nc3)CC2)n1 | 1.06 |
| CCOC(=O)C1=CN(Cc2ccccc2)C=C(C(=O)OCC)C1c1ccccc1 | 0.943 |
| CC[C@H](Nc1ncnc2[nH]cnc12)c1nc2cccc(F)c2c(=O)n1-c1ccccc1 | 1.02 |

Continued:

| SMILES | surface PD-L1 immunofluorescence intensity |
| --- | --- |
| O=C(c1ccc(F)cc1)C1CCN(CCn2c(=S)[nH]c3ccccc3c2=O)CC1 [Altanserin hydrochloride] | 0.997 |
| c1ccc(-c2nn3c(c2-c2ccnc4cc(OCCN5CCOCC5)ccc24)CCC3)nc1 | 0.982 |
| O=C1O[C@H]([C@@H](O)CO)C(O)=C1O [Ascorbic acid] | 1.13 |
| Clc1ccc(C(c2ccccc2Cl)C(Cl)Cl)cc1 (configuration not stated) [Mitotane] | 1.13 |
| Clc1ccc(C(c2ccccc2Cl)C(Cl)Cl)cc1 (configuration not stated) [Mitotane (Lysodren)] | 0.91 |
| C[C@@H]1CC[C@@]2(OC1)O[C@H]1C[C@H]3[C@@H]4CC=C5C[C@@H](O)CC[C@]5(C)[C@H]4CC[C@]3(C)[C@H]1[C@@H]2C [Diosgenin] | 0.992 |
| O=C1Nc2ccc(Cl)cc2[C@@](C#CC2CC2)(C(F)(F)F)O1 [Efavirenz] | 1.08 |
| c1ccc2sc(N3CCN(Cc4ccc5c(c4)OCO5)CC3)nc2c1 [2-[1-(4-Piperonyl)piperazinyl]benzothiazole] | 1.18 |
| N#Cc1ccc(NC(=O)Nc2ccccc2Br)c2n[nH]nc12 | 0.963 |
| OCCN1CCN(CC/C=C2/c3ccccc3Sc3ccc(Cl)cc32)CC1 [Zuclopenthixol dihydrochloride] | 0.997 |
| C=CCN1CCc2cc(O)c(O)cc2C(c2ccccc2)C1 (configuration not stated) | 1.01 |
| O=C(NCCCCCCNC(=O)ON=C1CCCCC1)ON=C1CCCCC1 | 1.01 |
| CC(C)[C@H](O)C(=O)N[C@@H](C)C(=O)N[C@@H]1C(=O)N(C)CCc2ccccc21 | 1.06 |
| NS(=O)(=O)c1nn2cc(-c3ccccc3)nc2s1 | 0.959 |
| CCc1cc(Cl)c(OC)c(C(=O)NC[C@@H]2CCCN2CC)c1O [Eticlopride hydrochloride] | 0.929 |
| CN(C)CCOC(=O)C(c1ccccc1)C1(O)CCCC1 (configuration not stated) [Cyclopentolate hydrochloride] | 1.03 |
| Nc1ccc(/N=N/c2ccccc2)c(N)n1 [Phenazopyridine hydrochloride] | 0.974 |
| CCC(=O)O[C@]1(C(=O)SCF)[C@H](C)C[C@H]2[C@@H]3C[C@H](F)C4=CC(=O)C=C[C@]4(C)[C@@]3(F)[C@@H](O)C[C@@]21C [Fluticasone propionate] | 0.805 ± 0.015 |
| CCCNC(C)(C)COC(=O)c1ccccc1 [Meprylcaine hydrochloride] | 0.978 |
| C[N+](C)(CCOc1ccccc1)Cc1ccccc1.O=C([O-])c1cc2ccccc2cc1O [Bephenium hydroxynaphthoate] | 0.934 |
| CC(NCCc1ccc(O)cc1)C(O)c1ccc(O)cc1 (configuration not stated) [Ritodrine hydrochloride] | 1.05 |
| CCC1(C)CC(=O)NC1=O (configuration not stated) [Ethosuximide] | 0.906 |
| NC1CCN(c2c(F)cc3c(=O)c(C(=O)O)cn(C4CC4)c3c2Cl)C1 (configuration not stated) [Clinafloxacin] | 0.943 |
| CC(C)(O)CC(=O)NCCn1ccc2ncnc(Nc3ccc(Oc4cccc(C(F)(F)F)c4)c(Cl)c3)c21 | 0.957 ± 0.012 |
| C[C@H](Nc1ncnc2nc[nH]c12)c1cc2cccc(Cl)c2c(=O)n1-c1ccccc1 | 0.982 |
| C[C@H](Nc1ncnc2nc[nH]c12)c1cc2cccc(Cl)c2c(=O)n1-c1ccccc1 [Duvelisib (IPI-145, INK1197)] | 0.969 |
